Experimental data reported in US20150368309A1 (SHIRE HUMAN GENETIC THERAPIES, published 2015).
These are yes or no findings as the source states them, for the method shown. Some entries that bind do so weakly or less than the wild type.

Experiments:
[1] = biological target: T1, mouse sFlt-1 (mouse, UniProt P35969 23-759, limits assumed); assay: SPR, capture approach
T1 construct: also called msFlt-1
T1 sequence (looked up): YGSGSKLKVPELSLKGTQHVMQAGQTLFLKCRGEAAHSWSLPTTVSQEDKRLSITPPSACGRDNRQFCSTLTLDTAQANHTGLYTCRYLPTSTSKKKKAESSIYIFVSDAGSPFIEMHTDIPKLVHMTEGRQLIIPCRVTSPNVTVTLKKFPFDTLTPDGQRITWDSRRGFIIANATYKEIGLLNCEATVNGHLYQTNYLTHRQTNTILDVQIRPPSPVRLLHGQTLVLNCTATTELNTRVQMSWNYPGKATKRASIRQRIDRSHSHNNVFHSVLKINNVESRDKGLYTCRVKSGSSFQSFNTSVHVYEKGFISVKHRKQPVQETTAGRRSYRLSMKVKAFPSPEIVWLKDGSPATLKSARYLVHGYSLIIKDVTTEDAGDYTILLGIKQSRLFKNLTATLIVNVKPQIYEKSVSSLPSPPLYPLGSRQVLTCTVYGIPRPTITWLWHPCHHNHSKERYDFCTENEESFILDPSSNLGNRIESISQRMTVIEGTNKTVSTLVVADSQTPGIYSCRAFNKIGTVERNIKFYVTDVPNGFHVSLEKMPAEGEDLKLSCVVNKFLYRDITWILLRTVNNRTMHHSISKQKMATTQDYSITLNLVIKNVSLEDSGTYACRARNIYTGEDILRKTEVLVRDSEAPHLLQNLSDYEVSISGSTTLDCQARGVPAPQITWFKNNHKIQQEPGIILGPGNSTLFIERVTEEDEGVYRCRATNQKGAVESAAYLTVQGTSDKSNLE
Description: In the capture approach, goat anti-hIgG Fc polyclonal antibody (30 μg/mL in 10 mM acetate buffer, pH 5.0) was immobilized onto a CM5 chip by amine coupling. The immobilization level or surface density of anti-hIgG Fc antibody was controlled between 6000 to 8000 RU. For the kinetic study, sFlt-1-Fc was captured on the surface that was immobilized with the anti-hIgG Fc antibody, before each injection of PLGF variants. The capture level of sFlt-1-Fc (10 μg/mL) was controlled by varying contact time, 10 to 30 seconds, at flow rate 10 μL/min. PLGF variants, as analytes, were serially diluted in HBS-EP+ buffer from 50 to 0.03 nM, and injected to the surface that captured sFlt-1-Fc. The association time for each PLGF variants injection was 300 seconds at 30 μL/min and dissociation time was 600 seconds at the same flow rate. After each round of PLGF variants' injection, a regeneration of […] H3PO4 pH1.8 at 60 μl/min for 90 seconds was performed. The regeneration step effectively removes the complex of sFlt-1-Fc and PLGF variants from the surface that was immobilized with anti-hIgG Fc antibody. A stabilization step was applied for 90 seconds after regeneration.
The binding characteristics of PLGF variants, PLGF C59A, human WT PLGF and mouse WT PLGF, with msFlt-1 were studied in the mouse model. The same capture approach for hsFlt-1 was used for the msFlt-1.

[2] = biological target: Flt-1 receptor (plate based assay) (Homo sapiens (Human)) (UniProt P17948); assay: plate based assay, Flt-1 captured by anti-Flt-1 antibody, detection with biotinylated anti-PLGF
[3] = biological target: PLGF C59A (human) (UniProt P49763); assay: DSS crosslinking, anti-PLGF Western blot (self-association)
[4] = biological target: PLGF C59A (human) (UniProt P49763); assay: DSS crosslinking, Western blot (self-association)
[5] = biological target: T2, human sFlt-1-Fc (human, UniProt P17948-2 27-687, limits assumed); assay: SPR, hsFlt-1-Fc captured by anti-hIgG Fc
T2 construct: A bought fusion protein; also called hsFlt-1-Fc; hsFlt-1-Fc dimer; not shown: Fc part (captured and detected with anti-human IgG Fc)

[6] = biological target: Flt-1 receptor (plate based assay) (Homo sapiens (Human)) (UniProt P17948); assay: plate based assay: Flt-1 captured by coated mouse monoclonal anti-Flt-1 antibody, bound PLGF detected with biotinylated goat anti-PLGF antibody and streptavidin-HRP, OD450
[7] = biological target: Human sFlt-1 (Abcam, Cat#54346), without Fc fusion (human) (UniProt P17948); assay: DSS crosslinking, anti-PLGF and anti-Flt-1 Western blots
[8] = biological target: Human sFlt-1 (Abcam, Cat#54346), without Fc fusion (human) (UniProt P17948); assay: DSS crosslinking, Western blot
[9] = biological target: Human sFlt-1 (Abcam, Cat#54346), without Fc fusion (human) (UniProt P17948); assay: DSS crosslinking, reduced SDS-PAGE, Western blots with anti-Flt1 and anti-PlGF
[10] = biological target: T2, human sFlt-1-Fc; assay: SPR, capture approach

Measured: binding

B1: mouse WT PLGF (ligand, UniProt P49764 19-158, looked up)
chain: VHSQGALSAGNNSTEVEVVPFNEVWGRSYCRPMEKLVYILDEYPDEVSHIFSPSCVLLSRCSGCCGDEGLHCVPIKTANITMQILKIPPNRDPHFYVEMTFSQDVLCECRPILETTKAERRKTKGKRKRSRNSQTEEPHP
binds: [1]

B2: PLGF C59A (ligand)
chain: LPAVPPQQWALSAGNGSSEVEVVPFQEVWGRSYCRALERLVDVVSEYPSEVEHMFSPSAVSLLRCTGCCGDENLHCVPVETANVTMQLLKIRSGDRPSYVELTFSQHVRCECRPLREKMKPERCGDAVPRRHHHHHH
notes: Expressed in human fibrosarcoma cells, purified on a Nickel column, glycosylated; RC4 96.7% monomer; R3 97.1% monomer, formulated in 1 mM DTT; also called C59A PLGF; not shown: Tev protease cleavage site added at the C-terminus
binds: [2] | [3] | [4] | [5] | [6] | [7] | [8] | [9]

B3: wild-type human PLGF protein (ligand)
chain: LPAVPPQQWALSAGNGSSEVEVVPFQEVWGRSYCRALERLVDVVSEYPSEVEHMFSPSCVSLLRCTGCCGDENLHCVPVETANVTMQLLKIRSGDRPSYVELTFSQHVRCECRPLREKMKPERCGDAVPRR
notes: also called WT PLGF; Human WT-PLGF
binds: [2] | [1] | [10] | [6] | [7] | [8] | [9]
